PubChem BioAssay AID504834 (National Center for Advancing Translational Sciences (NCATS), 2011)
The whole screen tested about 320,000 compounds, of which about 22,000 (6.9%) were called active. Inconclusive results, whose numbers are uncertain, are shown with a selection of clear calls. The call rests on the fitted dose curve; in most records, active means well fitted inhibition curve with a large enough effect; inconclusive means small, poorly fitted or top-dose-only effect, or another doubt; inactive means no such curve, though single readings can be large or run the other way. Potencies of inconclusive entries are doubtful fits and often do not repeat.

Experiment: Primary qHTS for delayed death inhibitors of the malarial parasite plastid, 96 hour incubation
Conditions: P. falciparum luciferase reporter growth; series mostly up to 28.7 µM
Procedure, shortened: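 Plates of compound plus infected erythrocytes (2% hematocrit, 0.05% parasitemia final) incubate 96 hours, 37 C, 5% CO2. Detection reagent added; reduced luminescence from the parasites' luciferase reporter flags inhibition.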
Potency means the concentration at half of the fitted maximal effect.

Row | SMILES | Potency
1 | CCc1cc(=O)oc2c(C)c(OCC(=O)NCCCN3CCOCC3)ccc12 | inconclusive: 18.5 µM [inhibitor, single point]
2 | CCOCC(=O)N1CCN(c2ccc(F)cc2)CC1 | inactive
3 | COC(=O)c1sccc1NC(=O)C1CC1 | inactive
4 | COc1cc2c(cc1OC)C(/C=C/c1ccco1)=NCC2 | inconclusive: 8.28 µM [inhibitor, partial curve, poor fit]
5 | Cc1ccc(S(=O)(=O)NC2=C(N3CCN(c4ccccc4F)CC3)C(=O)c3ccccc3C2=O)cc1 | inconclusive: 2.33 µM [inhibitor, full curve, poor fit]
6 | CN(C)C=NC(=O)c1[nH]c2ccc(Cl)cc2c1-c1ccccc1 | inactive
7 | CNC(=S)N1N=C(c2ccc(C)cc2)CC1c1ccc(Br)cc1 (centres undefined) | inconclusive: 13.1 µM [inhibitor, single point]
8 | Nc1nc(SCC(=O)Nc2ccccc2C(F)(F)F)[nH]c(=O)c1-c1ccccc1 | inconclusive: 18.5 µM [inhibitor, single point]
9 | COc1nc(NCCc2ccc(OC)c(OC)c2)nc(Nc2ccccc2)n1 | inconclusive: 10.4 µM [inhibitor, single point]
10 | O=C(NCc1cccnc1)c1ccc(Cl)c(S(=O)(=O)Nc2ccccc2C(=O)NCc2cccnc2)c1 | inconclusive: 8.28 µM [inhibitor, single point]
11 | CCc1noc(C)c1C(=O)N1CCCC(N2CCN(c3cccc(Cl)c3)CC2)C1 (centres undefined) | inconclusive: 10.4 µM [inhibitor, single point]
12 | COc1ccccc1C(=O)NCC(=O)N1CC=C(c2ccccc2)CC1 | inconclusive: 0.828 µM [inhibitor, partial curve, poor fit]
13 | CC(Oc1cccc(Cl)c1)C(=O)Nc1ccc(S(=O)(=O)NC2=NCCCCC2)cc1 (centres undefined) | inconclusive: 6.57 µM [inhibitor, partial curve]
14 | CC1(C)Cc2cccc(OCC(=O)OCC(=O)Nc3cccc(S(N)(=O)=O)c3)c2O1 | inactive
15 | CCOC(=O)c1sc(N(C)C(C)=O)nc1C | inconclusive: 0.0928 µM [inhibitor, full curve, poor fit]
16 | O=C(NCc1ccccn1)c1cc(-c2ccncc2)nc2ccccc12 | inconclusive: 11.7 µM [inhibitor, single point]
17 | Cc1ccc(NS(=O)(=O)c2cc(C(=O)Nc3cccnc3)ccc2C)cc1 | inconclusive: 18.5 µM [inhibitor, single point]
18 | CCC(=O)Nc1ccc(NC(=O)CSc2nc3cc4c(cc3cc2C)CCC4)cc1 | inconclusive: 11.7 µM [inhibitor, single point]
19 | CCCc1[nH]nc2c1C(c1ccsc1)C(C#N)=C(N)O2 (centres undefined) | inconclusive: 11.7 µM [inhibitor, single point]
20 | Cc1ccc(CNc2cc(-c3nn4c(C)nnc4s3)ccc2C)s1 | inconclusive: 9.28 µM [inhibitor, single point]
21 | CCC(=O)NC(c1cccs1)c1ccc2cccnc2c1O (centres undefined) | inconclusive: 4.15 µM [inhibitor, partial curve, poor fit]
22 | c1ccc2c(-c3cn4ccccc4n3)c[nH]c2c1 | inconclusive: 2.08 µM [inhibitor, full curve, poor fit]

Row | SMILES | Potency
23 | CCc1sc(N)nc1-c1ccccc1 | inconclusive: 10.4 µM [inhibitor, single point]
24 | Cc1ccc(S(=O)(=O)N2CCN(C(=O)COc3ccc(C)nc3[N+](=O)[O-])CC2)c(C)c1 | inconclusive: 10.4 µM [inhibitor, partial curve]
25 | O=C(CCCn1c(=S)[nH]c2cc3c(cc2c1=O)OCO3)NCc1cccc(Cl)c1 | active: 9.28 µM
26 | COc1cc(/C=C/C(=O)Nc2ccccc2C(F)(F)F)cc(OC)c1OC | inconclusive: 20.8 µM [inhibitor, partial curve, poor fit]
27 | Cc1nc2ccc(NC(=O)C3CCCCC3)cc2s1 | inconclusive: 16.5 µM [inhibitor, single point]
28 | COc1ccc(-c2onc(C)c2-c2cscn2)c(O)c1 | inactive
29 | O=C(COc1ccc(Cl)cc1[N+](=O)[O-])NC1CCCCC1 | inactive
30 | O=C1C2C3C=CC(CC3)C2C(=O)N1c1nccs1 (centres undefined) | inconclusive: 0.415 µM [inhibitor, partial curve, poor fit]
31 | Cc1ccc(COc2cccc3c2CCN(Cc2ccc(F)cc2)C3=O)cc1 | inconclusive: 11.7 µM [inhibitor, single point]
32 | CN(C)S(=O)(=O)c1ccc(N2CCCC2)c(C(=O)NCC(=O)Nc2ccc(F)c(F)c2)c1 | inconclusive: 16.5 µM [inhibitor, partial curve, poor fit]
33 | O=C(O)CCc1ccc(-c2cccs2)n1NC(=O)c1ccco1 | active: 10.4 µM
34 | COc1ccc(-n2c(SCC(=O)OC(C)C)nnc2-c2ccccn2)cc1 | active: 2.08 µM
35 | N#C/C(=C/c1cn(CC(=O)O)c2ccccc12)c1ccc(F)cc1 | inconclusive: 16.5 µM [inhibitor, single point]
36 | COc1cccc(OC)c1C(=O)NC(=S)NCc1cccnc1 | inactive
37 | O=C(N/N=C/c1ccc2c(c1)OCO2)c1cc(-c2ccc(F)cc2)nc2ccccc12 | inconclusive: 11.7 µM [inhibitor, single point]
38 | Cc1cccc(/C=N/NC(=O)C[n+]2ccccc2)c1 | inconclusive: 18.5 µM [inhibitor, single point]
39 | CCC(NC(=O)C1CCCO1)c1ccccc1 (centres undefined) | inconclusive: 14.7 µM [inhibitor, single point]
40 | COc1cccc(N2CCN(C(=O)c3ccc4ccccc4c3)CC2)c1 | inconclusive: 10.4 µM [inhibitor, single point]
41 | C=CCC(NCc1ccco1)c1ccc(OC)c(OC)c1 (centres undefined) | inactive
42 | Cc1ccc(NC(=O)c2ccc3c(c2)OCCO3)cc1C | inactive
43 | O=C(Nc1ccc(Cl)c(C(F)(F)F)c1)NC1CC2CCCC(C1)N2Cc1ccccc1 (centres undefined) | inconclusive: 9.28 µM [inhibitor, single point]
44 | COc1ccc(-c2nn3c(-c4ccccn4)nnc3s2)cc1OC | inconclusive: 13.1 µM [inhibitor, single point]

2 records drawn at random from the list so far, as already listed:
Row | SMILES | Potency
36 | COc1cccc(OC)c1C(=O)NC(=S)NCc1cccnc1 | inactive
44 | COc1ccc(-c2nn3c(-c4ccccn4)nnc3s2)cc1OC | inconclusive: 13.1 µM [inhibitor, single point]
